Source: the supplement of paper PMC10849652
The other results are listed elsewhere or left out. Residues, ends and D or L forms follow the SMILES beside them. *: point of attachment. Cbz = O=C(OCc1ccccc1)*

By UniProt entry, the sequences of proteins in these tests, tags left out. Where a name states a change or a piece, a line headed by the entry shows the natural chain unless it says otherwise.
UniProt P17050: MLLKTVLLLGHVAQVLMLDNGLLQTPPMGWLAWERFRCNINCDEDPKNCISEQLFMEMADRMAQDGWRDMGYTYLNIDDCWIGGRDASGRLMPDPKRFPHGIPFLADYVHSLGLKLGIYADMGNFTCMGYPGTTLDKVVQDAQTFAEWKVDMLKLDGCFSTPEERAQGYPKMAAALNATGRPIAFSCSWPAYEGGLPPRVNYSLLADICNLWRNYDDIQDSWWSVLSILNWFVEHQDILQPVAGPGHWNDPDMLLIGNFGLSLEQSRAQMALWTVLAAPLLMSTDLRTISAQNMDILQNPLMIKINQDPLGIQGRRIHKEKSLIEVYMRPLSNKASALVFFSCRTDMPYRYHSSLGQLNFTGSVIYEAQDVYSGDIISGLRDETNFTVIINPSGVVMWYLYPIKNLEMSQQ
UniProt P43490: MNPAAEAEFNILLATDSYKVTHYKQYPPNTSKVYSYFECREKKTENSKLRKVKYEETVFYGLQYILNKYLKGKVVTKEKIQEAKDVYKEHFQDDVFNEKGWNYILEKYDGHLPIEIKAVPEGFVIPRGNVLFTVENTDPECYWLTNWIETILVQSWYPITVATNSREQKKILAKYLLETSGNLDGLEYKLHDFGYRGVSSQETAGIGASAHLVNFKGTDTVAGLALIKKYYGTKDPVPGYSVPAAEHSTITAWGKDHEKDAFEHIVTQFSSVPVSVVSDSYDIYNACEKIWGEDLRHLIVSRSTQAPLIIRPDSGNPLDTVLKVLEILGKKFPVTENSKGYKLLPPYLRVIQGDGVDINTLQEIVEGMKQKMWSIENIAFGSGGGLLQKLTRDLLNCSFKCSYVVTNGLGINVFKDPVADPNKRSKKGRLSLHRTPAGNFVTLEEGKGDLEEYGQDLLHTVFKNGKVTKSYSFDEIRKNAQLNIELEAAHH
UniProt O43678, whole entry, looked up: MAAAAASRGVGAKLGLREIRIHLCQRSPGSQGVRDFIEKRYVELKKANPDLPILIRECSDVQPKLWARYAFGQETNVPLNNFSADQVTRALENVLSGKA
UniProt Q9UN36: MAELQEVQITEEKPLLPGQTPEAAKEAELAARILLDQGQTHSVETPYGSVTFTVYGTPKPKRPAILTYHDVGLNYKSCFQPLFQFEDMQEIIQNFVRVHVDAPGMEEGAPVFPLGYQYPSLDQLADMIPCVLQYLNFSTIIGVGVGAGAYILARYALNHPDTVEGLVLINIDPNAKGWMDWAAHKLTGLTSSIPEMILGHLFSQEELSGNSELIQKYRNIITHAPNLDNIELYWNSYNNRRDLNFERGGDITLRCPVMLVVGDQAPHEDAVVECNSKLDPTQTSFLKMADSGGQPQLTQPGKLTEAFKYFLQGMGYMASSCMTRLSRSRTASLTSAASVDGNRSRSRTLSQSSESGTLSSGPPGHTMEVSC
UniProt O76041: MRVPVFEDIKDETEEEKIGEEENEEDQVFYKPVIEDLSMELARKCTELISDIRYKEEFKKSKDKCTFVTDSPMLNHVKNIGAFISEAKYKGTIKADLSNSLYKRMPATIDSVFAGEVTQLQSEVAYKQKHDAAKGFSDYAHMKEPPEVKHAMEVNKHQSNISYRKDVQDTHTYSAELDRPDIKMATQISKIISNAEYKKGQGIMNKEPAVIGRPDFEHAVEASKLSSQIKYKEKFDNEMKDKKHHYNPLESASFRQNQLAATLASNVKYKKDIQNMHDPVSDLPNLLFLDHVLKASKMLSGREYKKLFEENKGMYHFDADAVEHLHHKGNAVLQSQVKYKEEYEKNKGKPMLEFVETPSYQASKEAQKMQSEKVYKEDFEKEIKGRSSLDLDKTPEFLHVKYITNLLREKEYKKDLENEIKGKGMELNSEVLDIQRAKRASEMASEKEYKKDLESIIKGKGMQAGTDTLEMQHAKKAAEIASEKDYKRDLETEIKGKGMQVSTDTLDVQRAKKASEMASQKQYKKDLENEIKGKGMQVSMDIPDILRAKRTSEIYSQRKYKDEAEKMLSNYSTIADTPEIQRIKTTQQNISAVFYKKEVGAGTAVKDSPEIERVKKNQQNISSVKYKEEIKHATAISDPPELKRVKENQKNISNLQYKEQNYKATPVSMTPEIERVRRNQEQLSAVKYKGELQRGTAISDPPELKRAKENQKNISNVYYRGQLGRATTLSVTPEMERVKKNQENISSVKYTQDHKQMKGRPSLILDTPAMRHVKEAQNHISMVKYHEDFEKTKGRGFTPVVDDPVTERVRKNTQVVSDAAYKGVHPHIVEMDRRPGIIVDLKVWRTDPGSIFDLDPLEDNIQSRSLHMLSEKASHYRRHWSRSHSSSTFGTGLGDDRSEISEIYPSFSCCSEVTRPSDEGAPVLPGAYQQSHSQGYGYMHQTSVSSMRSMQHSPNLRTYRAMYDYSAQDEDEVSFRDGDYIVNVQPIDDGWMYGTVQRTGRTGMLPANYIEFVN
UniProt Q13459: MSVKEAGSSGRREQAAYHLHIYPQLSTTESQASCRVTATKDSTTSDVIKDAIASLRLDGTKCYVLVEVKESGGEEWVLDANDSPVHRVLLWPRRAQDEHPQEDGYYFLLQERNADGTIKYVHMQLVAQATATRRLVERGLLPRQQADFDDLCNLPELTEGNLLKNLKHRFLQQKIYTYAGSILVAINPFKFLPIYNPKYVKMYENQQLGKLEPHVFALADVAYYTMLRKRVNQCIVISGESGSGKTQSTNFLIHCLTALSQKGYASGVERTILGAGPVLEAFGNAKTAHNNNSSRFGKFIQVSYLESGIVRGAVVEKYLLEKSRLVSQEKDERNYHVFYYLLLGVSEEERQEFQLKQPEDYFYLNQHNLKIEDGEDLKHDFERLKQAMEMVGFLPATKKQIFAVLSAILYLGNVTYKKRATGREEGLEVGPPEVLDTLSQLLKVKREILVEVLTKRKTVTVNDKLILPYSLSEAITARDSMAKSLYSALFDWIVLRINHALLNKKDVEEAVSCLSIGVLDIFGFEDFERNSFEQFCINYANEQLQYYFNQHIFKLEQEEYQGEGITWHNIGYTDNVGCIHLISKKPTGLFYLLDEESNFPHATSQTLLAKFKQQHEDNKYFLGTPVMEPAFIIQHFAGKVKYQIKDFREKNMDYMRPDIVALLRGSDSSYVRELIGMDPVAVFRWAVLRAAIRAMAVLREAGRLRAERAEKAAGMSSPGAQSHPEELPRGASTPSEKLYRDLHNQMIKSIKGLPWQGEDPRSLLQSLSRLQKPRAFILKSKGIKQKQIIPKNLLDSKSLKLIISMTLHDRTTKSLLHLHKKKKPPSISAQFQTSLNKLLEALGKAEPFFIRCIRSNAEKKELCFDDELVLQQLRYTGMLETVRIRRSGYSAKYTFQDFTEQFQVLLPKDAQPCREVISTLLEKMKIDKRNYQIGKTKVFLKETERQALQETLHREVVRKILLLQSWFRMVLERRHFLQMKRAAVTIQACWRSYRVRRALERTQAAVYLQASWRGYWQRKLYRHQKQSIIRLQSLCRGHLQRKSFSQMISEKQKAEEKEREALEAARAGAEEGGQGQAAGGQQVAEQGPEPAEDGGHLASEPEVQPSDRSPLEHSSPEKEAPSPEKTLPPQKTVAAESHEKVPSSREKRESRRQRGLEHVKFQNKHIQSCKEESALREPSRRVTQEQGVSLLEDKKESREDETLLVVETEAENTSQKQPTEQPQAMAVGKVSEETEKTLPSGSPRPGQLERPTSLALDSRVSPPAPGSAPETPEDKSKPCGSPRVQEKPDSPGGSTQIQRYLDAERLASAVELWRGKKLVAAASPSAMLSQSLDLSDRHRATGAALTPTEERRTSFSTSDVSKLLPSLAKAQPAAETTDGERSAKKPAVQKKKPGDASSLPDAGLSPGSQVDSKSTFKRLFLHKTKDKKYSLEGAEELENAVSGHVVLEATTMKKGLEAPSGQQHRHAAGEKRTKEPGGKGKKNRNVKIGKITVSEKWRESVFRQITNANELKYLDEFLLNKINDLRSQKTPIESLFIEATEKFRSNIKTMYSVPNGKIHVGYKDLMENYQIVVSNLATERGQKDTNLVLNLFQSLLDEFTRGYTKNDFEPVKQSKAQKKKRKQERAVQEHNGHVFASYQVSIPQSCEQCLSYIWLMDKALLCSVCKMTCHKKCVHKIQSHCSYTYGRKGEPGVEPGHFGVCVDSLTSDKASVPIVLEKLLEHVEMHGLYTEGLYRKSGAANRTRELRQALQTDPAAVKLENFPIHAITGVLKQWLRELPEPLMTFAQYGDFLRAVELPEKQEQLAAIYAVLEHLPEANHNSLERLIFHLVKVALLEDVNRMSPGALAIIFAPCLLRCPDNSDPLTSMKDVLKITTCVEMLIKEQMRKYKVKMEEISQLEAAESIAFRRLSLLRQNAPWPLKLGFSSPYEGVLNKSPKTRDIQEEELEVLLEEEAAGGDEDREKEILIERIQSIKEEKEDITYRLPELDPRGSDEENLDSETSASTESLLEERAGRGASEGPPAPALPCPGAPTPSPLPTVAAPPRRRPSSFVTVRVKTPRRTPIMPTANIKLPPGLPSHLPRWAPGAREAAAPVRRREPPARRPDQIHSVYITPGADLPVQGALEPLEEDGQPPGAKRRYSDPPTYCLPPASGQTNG
UniProt O43676, whole entry, looked up: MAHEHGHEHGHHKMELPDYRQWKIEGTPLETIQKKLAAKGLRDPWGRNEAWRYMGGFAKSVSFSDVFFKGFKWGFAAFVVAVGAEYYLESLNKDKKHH
UniProt P54920: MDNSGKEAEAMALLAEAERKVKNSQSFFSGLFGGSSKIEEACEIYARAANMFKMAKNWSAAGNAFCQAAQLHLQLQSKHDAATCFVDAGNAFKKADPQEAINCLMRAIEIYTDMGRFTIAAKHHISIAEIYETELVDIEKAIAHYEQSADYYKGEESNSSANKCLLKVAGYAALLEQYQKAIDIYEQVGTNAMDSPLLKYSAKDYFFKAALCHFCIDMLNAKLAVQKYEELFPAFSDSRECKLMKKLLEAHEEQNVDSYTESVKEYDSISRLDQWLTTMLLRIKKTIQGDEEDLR
UniProt O43920, whole entry, looked up: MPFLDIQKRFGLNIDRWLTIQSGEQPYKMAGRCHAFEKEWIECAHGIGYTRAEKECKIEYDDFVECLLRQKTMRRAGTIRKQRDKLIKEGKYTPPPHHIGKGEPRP
UniProt P49821, whole entry, looked up: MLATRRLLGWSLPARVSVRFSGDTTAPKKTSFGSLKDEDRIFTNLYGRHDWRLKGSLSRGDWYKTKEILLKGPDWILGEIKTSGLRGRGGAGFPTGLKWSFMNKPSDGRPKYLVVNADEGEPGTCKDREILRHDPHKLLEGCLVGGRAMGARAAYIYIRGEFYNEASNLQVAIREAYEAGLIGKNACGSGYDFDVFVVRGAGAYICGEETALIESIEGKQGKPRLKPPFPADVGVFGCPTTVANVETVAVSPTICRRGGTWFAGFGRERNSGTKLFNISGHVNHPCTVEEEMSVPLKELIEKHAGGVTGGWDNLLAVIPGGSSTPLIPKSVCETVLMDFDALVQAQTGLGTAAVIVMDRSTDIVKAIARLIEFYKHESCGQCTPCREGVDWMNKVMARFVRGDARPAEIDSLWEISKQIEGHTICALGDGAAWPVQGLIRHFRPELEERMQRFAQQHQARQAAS
UniProt O75306, whole entry, looked up: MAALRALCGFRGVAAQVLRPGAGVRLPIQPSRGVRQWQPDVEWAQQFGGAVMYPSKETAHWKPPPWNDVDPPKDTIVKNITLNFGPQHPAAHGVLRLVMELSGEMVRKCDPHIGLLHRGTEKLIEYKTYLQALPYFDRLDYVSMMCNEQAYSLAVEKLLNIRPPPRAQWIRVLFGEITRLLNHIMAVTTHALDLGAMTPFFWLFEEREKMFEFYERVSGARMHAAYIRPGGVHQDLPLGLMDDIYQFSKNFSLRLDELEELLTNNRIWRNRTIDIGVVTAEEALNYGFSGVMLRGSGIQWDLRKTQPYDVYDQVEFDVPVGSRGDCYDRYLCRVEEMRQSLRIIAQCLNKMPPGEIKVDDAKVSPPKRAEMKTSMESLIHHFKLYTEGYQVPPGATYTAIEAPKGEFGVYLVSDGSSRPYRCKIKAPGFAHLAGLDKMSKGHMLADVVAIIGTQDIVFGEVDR
UniProt Q9UHQ1: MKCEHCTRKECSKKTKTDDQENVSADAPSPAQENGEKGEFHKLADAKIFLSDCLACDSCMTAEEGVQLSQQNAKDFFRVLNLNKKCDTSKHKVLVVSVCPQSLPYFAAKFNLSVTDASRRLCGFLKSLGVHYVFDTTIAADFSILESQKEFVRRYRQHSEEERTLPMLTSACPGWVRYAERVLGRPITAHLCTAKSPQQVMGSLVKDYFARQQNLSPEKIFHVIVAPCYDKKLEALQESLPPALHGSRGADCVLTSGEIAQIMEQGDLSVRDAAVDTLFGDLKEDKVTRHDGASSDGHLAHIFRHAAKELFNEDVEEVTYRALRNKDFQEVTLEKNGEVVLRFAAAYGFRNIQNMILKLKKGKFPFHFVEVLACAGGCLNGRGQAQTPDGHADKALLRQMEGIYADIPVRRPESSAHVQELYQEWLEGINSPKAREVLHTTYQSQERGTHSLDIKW

Key:
Assay in all cases: log2 fold change, soluble protein after heating vs DMSO (PISA); higher = thermal stabilisation; K562 cells, 10 uM, 30 min; active = over 0.2 and 3.5 SD of the protein, either way, in both replicates (recomputed)
erlotinib = compound: C#Cc1cccc(Nc2ncnc3cc(OCCOC)c(OCCOC)cc23)c1 [erlotinib]
Procedure, shortened: (§1)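 Thermal stability values are relative to control samples and come from duplicates. They are expressed as log2 fold changes. For measurement, K562 cells (2×10^6 cells/mL) received 10 μM compound for 30 min, and aliquots were heated for 3 min over 48°C-58°C, pooled, and extracted at 4°C in PBS with 0.5% NP-40. Soluble protein, the supernatant after 21,000xg for 90 min, was quantified by TMTpro 16plex LC-MS/MS with equalised channel sums.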

[1] = compound: C/C(=N\NC(=O)C1=CC(=CC=C1)S(=O)(=O)N2CCOCC2)/C3=C(C=CC(=C3)Cl)O
Procedure, shortened: as §1

[2] = compound: C1=CC(=C(C=C1Cl)C2=NC3=NC=CN=C3C(=N2)NC4=CC=NC=C4)F
Procedure, shortened: as §1

[3] = compound: C1=CC(=CC=C1C2=NC3=C(N2)C=C(C=C3)C(=O)N)OC4=CC=C(C=C4)Cl
Procedure, shortened: as §1

[4] = compound: C1=CC2=C(C=CC(=C2)/C=C\3/C(=O)NC(=NCC4=CC=CS4)S3)N=C1
Procedure, shortened: as §1

[5] = compound: C1=CC2=NC=CN=C2C=C1/C=C/3\C(=O)NC(=O)S3
Procedure, shortened: as §1

[6] = compound: C1=CC=C(C=C1)C2=NC(=C(N2)C3=CC=NC=C3)C4=CC(=C(C=C4)Cl)O
Procedure, shortened: as §1

[7] = compound: C1=CC=C2C(=C1)C3=NNC4=CC=CC(=C43)C2=O
Procedure, shortened: as §1

[8] = compound: C1CCN(C1)C(=O)NC2=CC=CC(=C2)NC3=NC=C(C(=N3)NCCC4=CN=CN4)Br
Procedure, shortened: as §1

[9] = compound: C1CN(CCC1(CC2=CC=C(C=C2)Cl)N)C3=NC=NC4=C3C=CN4
Procedure, shortened: as §1

IRAK-1-4 Inhibitor I = compound: C1COCCN1CCN2C3=CC=CC=C3N=C2NC(=O)C4=CC(=CC=C4)[N+](=O)[O-] [IRAK-1-4 Inhibitor I]
Procedure, shortened: as §1

ibrutinib = compound: C=CC(=O)N1CCC[C@@H](n2nc(-c3ccc(Oc4ccccc4)cc3)c3c(N)ncnc32)C1 [ibrutinib]
Procedure, shortened: as §1

[10] = compound: CC(=O)c1cnc2ccc(-c3cc(Cl)c(O)c(Cl)c3)nc2c1N[C@H]1CC[C@H](CN(C)C)CC1
Procedure, shortened: as §1

ralimetinib = compound: CC(C)(C)Cn1c(N)nc2ccc(-c3[nH]c(C(C)(C)C)nc3-c3ccc(F)cc3)nc21 [ralimetinib]
Procedure, shortened: as §1

[11] = compound: CC(C)(O)CC(=O)NCCn1ccc2ncnc(Nc3ccc(Oc4cccc(C(F)(F)F)c4)c(Cl)c3)c21
Procedure, shortened: as §1

[12] = compound: CC(C)C1=C2N=C(C=C(N2N=C1)NCC3=CC=CC=C3)NCCCCCCN
Procedure, shortened: as §1

[13] = compound: CC(C)C[C@@H](C=O)NC(=O)[C@H](CC(C)C)NC(=O)[C@H](CC(C)C)NC(=O)OCc1ccccc1
Procedure, shortened: as §1

pinometostat = compound: CC(C)N(C[C@H]1O[C@@H](n2cnc3c(N)ncnc32)[C@H](O)[C@@H]1O)[C@H]1C[C@@H](CCc2nc3cc(C(C)(C)C)ccc3[nH]2)C1 [pinometostat]
Procedure, shortened: as §1

[14] = compound: CC1=C(C(CC(=O)N1)C2=CC=C(C=C2)C(F)(F)F)C(=O)NC3=C(C=C4C(=C3)C=NN4)F
Procedure, shortened: as §1

[15] = compound: CC1=C(C2=C(C=C1)C(=O)C3=CC=CC=C3N2CCCN)C
Procedure, shortened: as §1

Measured: log2 fold change

NAGA (UniProt P17050)
inactive: erlotinib 0.04 | [1] -0.014 | [2] 0.001 | [3] -0.026 | [4] -0.012 | [5] 0.009 | [6] -0.003 | [7] 0.02 | [8] 0.064 | [9] 0.041 | IRAK-1-4 Inhibitor I -0.01 | ibrutinib 0.014 | [10] -0.036 | ralimetinib -0.036 | [11] -0.014 | [12] -0.118 | [13] 0.008 | pinometostat -0.033 | [14] 0.061 | [15] -0.013

NDUFAF3 (UniProt Q9BU61)
inactive: erlotinib 0.01 | [1] 0.069 | [2] 0.071 | [3] -0.034 | [4] 0.03 | [5] -0.011 | [6] 0.093 | [7] 0.011 | [8] -0.015 | [9] 0.02 | IRAK-1-4 Inhibitor I 0.032 | ibrutinib 0.002 | [10] 0.007 | ralimetinib 0.011 | [11] -0.046 | [12] -0.09 | [13] 0.001 | pinometostat -0.059 | [14] 0.003 | [15] 0.121

NAP1L4 isoform 2 (UniProt Q99733)
inactive: erlotinib -0.008 | [1] 0.024 | [2] 0.089 | [3] -0.029 | [4] -0.029 | [5] 0.033 | [6] -0.011 | [7] 0.003 | [8] -0.027 | [9] 0.018 | IRAK-1-4 Inhibitor I 0.017 | ibrutinib -0.015 | [10] 0.025 | ralimetinib -0.007 | [11] 0.006 | [12] 0.022 | [13] 0.012 | pinometostat 0.008 | [14] -0.041 | [15] 0.065

NAA15, A0A0B4J1W3
inactive: erlotinib -0.006 | [1] 0.096 | [2] 0.097 | [3] 0.029 | [4] 0.035 | [5] -0.052 | [6] 0.063 | [7] -0.034 | [8] -0.012 | [9] 0.015 | IRAK-1-4 Inhibitor I 0.024 | ibrutinib 0.05 | [10] 0.048 | ralimetinib -0.084 | [11] -0.047 | [12] 0.068 | [13] -0.154 | pinometostat -0.02 | [14] 0.293 | [15] 0.129

NAMPT (UniProt P43490)
inactive: erlotinib -0.003 | [1] 0.007 | [2] 0.035 | [3] -0.018 | [4] 0.007 | [5] -0.003 | [6] 0.007 | [7] -0.004 | [8] 0.007 | [9] 0.034 | IRAK-1-4 Inhibitor I 0.031 | ibrutinib 0.027 | [10] 0.005 | ralimetinib -0.073 | [11] -0.009 | [12] 0.062 | [13] -0.011 | pinometostat -0.033 | [14] -0.003 | [15] 0.039

NDUFA2 (UniProt O43678)
inactive: erlotinib -0.048 | [1] 0.02 | [2] 0.22 | [3] -0.022 | [4] 0.098 | [5] 0.012 | [6] 0.044 | [7] -0.008 | [8] -0.021 | [9] 0.043 | IRAK-1-4 Inhibitor I 0.027 | ibrutinib -0.025 | [10] -0.007 | ralimetinib -0.064 | [11] -0.127 | [12] 0.045 | [13] 0.116 | pinometostat 0.032 | [14] -0.041 | [15] 0.233

NDRG2 (UniProt Q9UN36)
inactive: erlotinib -0.04 | [1] 0.058 | [2] 0.08 | [3] -0.005 | [4] -0.013 | [5] 0.001 | [6] 0.011 | [7] -0.012 | [8] -0.013 | [9] -0.004 | IRAK-1-4 Inhibitor I 0.012 | ibrutinib 0.008 | [10] 0.037 | ralimetinib -0.022 | [11] -0.068 | [12] 0.042 | [13] -0.008 | pinometostat -0.044 | [14] -0.033 | [15] -0.072

NEBL (UniProt O76041)
inactive: erlotinib 0.012 | [1] -0.078 | [2] 0.021 | [3] -0.115 | [4] -0.054 | [5] -0.026 | [6] -0.004 | [7] -0.069 | [8] 0.044 | [9] 0.115 | IRAK-1-4 Inhibitor I 0.077 | ibrutinib 0.079 | [10] -0.199 | ralimetinib -0.076 | [11] 0.008 | [12] 0.069 | [13] 0.079 | pinometostat 0.04 | [14] -0.252 | [15] -0.033

MYO9B (UniProt Q13459)
inactive: erlotinib -0.024 | [1] 0.035 | [2] -0.138 | [3] -0.013 | [4] 0.088 | [5] -0.099 | [6] 0.026 | [7] -0.058 | [8] 0.047 | [9] -0.229 | IRAK-1-4 Inhibitor I -0.09 | ibrutinib -0.026 | [10] 0.081 | ralimetinib 0.087 | [11] 0 | [12] -0.143 | [13] 0.113 | pinometostat 0.224 | [14] -0.044 | [15] 0

NDUFB3 (UniProt O43676)
inactive: erlotinib -0.046 | [1] 0.028 | [2] -0.002 | [3] -0.033 | [4] -0.018 | [5] 0.036 | [6] 0.01 | [7] -0.054 | [8] 0.046 | [9] 0.055 | IRAK-1-4 Inhibitor I 0.027 | ibrutinib 0.031 | [10] -0.009 | ralimetinib -0.08 | [11] 0.05 | [12] -0.062 | [13] -0.028 | pinometostat -0.046 | [14] 0.017 | [15] -0.015

Quoted at random: 2 entries already listed, in no set order.
NAMPT (UniProt P43490)
inactive: erlotinib -0.003 | [1] 0.007 | [2] 0.035 | [3] -0.018 | [4] 0.007 | [5] -0.003 | [6] 0.007 | [7] -0.004 | [8] 0.007 | [9] 0.034 | IRAK-1-4 Inhibitor I 0.031 | ibrutinib 0.027 | [10] 0.005 | ralimetinib -0.073 | [11] -0.009 | [12] 0.062 | [13] -0.011 | pinometostat -0.033 | [14] -0.003 | [15] 0.039

NDUFA2 (UniProt O43678)
inactive: erlotinib -0.048 | [1] 0.02 | [2] 0.22 | [3] -0.022 | [4] 0.098 | [5] 0.012 | [6] 0.044 | [7] -0.008 | [8] -0.021 | [9] 0.043 | IRAK-1-4 Inhibitor I 0.027 | ibrutinib -0.025 | [10] -0.007 | ralimetinib -0.064 | [11] -0.127 | [12] 0.045 | [13] 0.116 | pinometostat 0.032 | [14] -0.041 | [15] 0.233

(further entries)

NAPA (UniProt P54920)
inactive: erlotinib -0.014 | [1] 0.094 | [2] 0.039 | [3] 0.015 | [4] -0.031 | [5] 0.025 | [6] 0.063 | [7] -0.003 | [8] -0.056 | [9] 0.026 | IRAK-1-4 Inhibitor I 0.039 | ibrutinib -0.009 | [10] 0 | ralimetinib 0.009 | [11] -0.094 | [12] -0.01 | [13] -0.041 | pinometostat -0.016 | [14] -0.001 | [15] -0.019

NDUFS5 (UniProt O43920)
inactive: erlotinib 0.039 | [1] 0.001 | [2] 0.017 | [3] -0.031 | [4] 0.01 | [5] -0.006 | [6] -0.029 | [7] -0.045 | [8] 0.005 | [9] 0.01 | IRAK-1-4 Inhibitor I 0.057 | ibrutinib 0.02 | [10] -0.027 | ralimetinib -0.057 | [11] -0.009 | [12] -0.053 | [13] 0.026 | pinometostat 0.02 | [14] 0.012 | [15] 0.003

NDUFV1 (UniProt P49821)
inactive: erlotinib -0.037 | [1] -0.026 | [2] 0.003 | [3] -0.009 | [4] 0.049 | [5] 0.05 | [6] 0.027 | [7] 0.017 | [8] 0.007 | [9] 0.047 | IRAK-1-4 Inhibitor I 0.025 | ibrutinib 0.005 | [10] 0.001 | ralimetinib -0.042 | [11] -0.124 | [12] 0.001 | [13] -0.001 | pinometostat 0.011 | [14] 0.058 | [15] 0.033

NDUFS2 (UniProt O75306)
inactive: erlotinib -0.017 | [1] 0.047 | [2] 0.064 | [3] 0.016 | [4] 0.007 | [5] 0.041 | [6] 0.022 | [7] 0.055 | [8] -0.03 | [9] 0 | IRAK-1-4 Inhibitor I 0.013 | ibrutinib 0.022 | [10] -0.014 | ralimetinib -0.036 | [11] -0.154 | [12] -0.084 | [13] -0.032 | pinometostat -0.019 | [14] 0.009 | [15] 0.054

NARF (UniProt Q9UHQ1)
inactive: erlotinib -0.011 | [1] 0.046 | [2] 0.059 | [3] -0.004 | [4] -0.029 | [5] 0.017 | [6] -0.005 | [7] -0.024 | [8] -0.043 | [9] 0.009 | IRAK-1-4 Inhibitor I -0.005 | ibrutinib 0.02 | [10] -0.004 | ralimetinib -0.055 | [11] 0 | [12] 0.035 | [13] 0.049 | pinometostat -0.039 | [14] -0.01 | [15] -0.058

NADK (UniProt O95544)
inactive: erlotinib 0.069 | [1] 0.015 | [2] 0.014 | [3] 0 | [4] -0.015 | [5] 0.01 | [6] -0.013 | [7] -0.022 | [8] 0.024 | [9] 0.074 | IRAK-1-4 Inhibitor I 0.028 | ibrutinib 0.032 | [10] -0.031 | ralimetinib -0.053 | [11] -0.023 | [12] 0.051 | [13] 0.011 | pinometostat -0.055 | [14] 0.012 | [15] -0.008
